These are yes or no findings as the source states them, for the method shown. Binding seen in cells or lysates may run through a third protein.
Target: endogenous Importin-7 (human (endogenous in RPE-1)) (UniProt O95373)
Assay: proximity ligation; in situ PLA (Duolink) of endogenous YAP (antibody 63.7) and Imp7 (rabbit antibody) in fixed, permeabilised RPE-1 cells; also after knock-down of Imp7, YAP or Smad3

By UniProt entry, the sequences of proteins in these tests, tags left out. Where a name states a change or a piece, a line headed by the entry shows the natural chain unless it says otherwise.
UniProt O95373: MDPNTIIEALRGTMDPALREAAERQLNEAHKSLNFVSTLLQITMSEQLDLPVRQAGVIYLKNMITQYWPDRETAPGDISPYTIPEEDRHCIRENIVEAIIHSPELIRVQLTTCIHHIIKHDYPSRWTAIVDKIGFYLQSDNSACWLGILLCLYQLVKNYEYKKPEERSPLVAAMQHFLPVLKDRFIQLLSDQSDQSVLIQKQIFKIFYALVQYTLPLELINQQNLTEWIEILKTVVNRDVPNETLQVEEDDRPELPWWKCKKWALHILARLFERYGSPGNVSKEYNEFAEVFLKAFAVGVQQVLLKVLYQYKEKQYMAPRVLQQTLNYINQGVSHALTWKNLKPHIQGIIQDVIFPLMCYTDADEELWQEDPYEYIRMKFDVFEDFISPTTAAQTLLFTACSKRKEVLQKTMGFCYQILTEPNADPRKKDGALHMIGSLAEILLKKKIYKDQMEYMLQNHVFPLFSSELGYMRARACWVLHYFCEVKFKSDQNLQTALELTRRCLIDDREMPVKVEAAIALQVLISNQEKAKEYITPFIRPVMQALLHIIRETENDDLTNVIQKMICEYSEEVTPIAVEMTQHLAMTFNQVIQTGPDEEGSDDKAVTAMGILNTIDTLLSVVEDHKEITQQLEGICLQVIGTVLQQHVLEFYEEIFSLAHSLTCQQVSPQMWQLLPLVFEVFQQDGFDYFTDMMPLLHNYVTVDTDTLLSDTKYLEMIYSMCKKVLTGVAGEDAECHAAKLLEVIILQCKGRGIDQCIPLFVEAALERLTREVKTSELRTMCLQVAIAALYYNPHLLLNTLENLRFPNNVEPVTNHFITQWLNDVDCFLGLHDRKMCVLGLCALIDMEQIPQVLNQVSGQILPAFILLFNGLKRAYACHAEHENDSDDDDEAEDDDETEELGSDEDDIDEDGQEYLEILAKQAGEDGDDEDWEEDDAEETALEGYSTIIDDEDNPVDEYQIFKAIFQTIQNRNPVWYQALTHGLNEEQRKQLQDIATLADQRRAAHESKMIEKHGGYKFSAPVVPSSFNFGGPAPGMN
UniProt P08253: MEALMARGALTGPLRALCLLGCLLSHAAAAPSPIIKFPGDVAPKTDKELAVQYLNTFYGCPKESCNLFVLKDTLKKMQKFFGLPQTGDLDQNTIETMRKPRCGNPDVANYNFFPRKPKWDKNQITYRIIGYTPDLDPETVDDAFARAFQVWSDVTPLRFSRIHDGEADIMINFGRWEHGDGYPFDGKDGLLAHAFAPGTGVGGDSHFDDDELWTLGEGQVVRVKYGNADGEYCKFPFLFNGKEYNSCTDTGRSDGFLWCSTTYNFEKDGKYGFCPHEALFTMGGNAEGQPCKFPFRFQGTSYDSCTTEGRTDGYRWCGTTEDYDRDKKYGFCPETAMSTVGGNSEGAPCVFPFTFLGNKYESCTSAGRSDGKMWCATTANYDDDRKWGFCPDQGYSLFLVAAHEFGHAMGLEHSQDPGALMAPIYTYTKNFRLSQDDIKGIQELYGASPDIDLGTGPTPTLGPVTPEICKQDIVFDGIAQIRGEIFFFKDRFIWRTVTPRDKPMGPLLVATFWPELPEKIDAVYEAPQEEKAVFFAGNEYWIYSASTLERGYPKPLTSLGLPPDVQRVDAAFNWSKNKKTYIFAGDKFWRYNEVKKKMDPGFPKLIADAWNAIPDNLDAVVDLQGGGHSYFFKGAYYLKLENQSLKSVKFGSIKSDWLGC

endogenous MMP2 (from UniProt P08253) was tested, and the binding was “no binding”.

Reference: paper PMC8897400
